A short description of this data set: peptide synthesis. The note with it: late stage modification step.

Take “[NH2] EOEOEN [Su(NPN)2] [Lys]16 [PEG570]32”: the step yield was 90%.
